Results as given in patent US12194014B2, “Platinum-based amphiphile prodrugs” (NANOMED HOLDINGS PTY LTD, priority 2018, dated 2025).
Some entries share one result that the patent states for a list of compounds. At least one structure is not confirmed: it was looked up by name or label, or the drawing left a doubt.

Experiment: Reduction kinetics of Pt (IV) prodrug nanoparticles with ascorbic acid (LC-MS)
Type: in vitro ADME
Details: 1 mM ascorbic acid, 10:1 to prodrug; 0.1 mM prodrug in liposomal DMPC/cholesterol nanoparticles; 37° C.
Experimental: The reducing agent was applied at concentrations corresponding to those found in the living cells' environment, e.g. 1 mM ascorbic acid or 2 mM glutathione (GSH).
Dispersed nanoparticles of Pt (IV) prodrug amphiphiles were mixed with GSH, ascorbic acid or their combination. The ratios of the reducing agents to platinum prodrugs were 10:1 or 50:1 for ascorbic acid and 20:1 for GSH. The reduction kinetics was analysed by LC-MS via monitoring the peaks related to each prodrug amphiphile. The prodrugs were detected by negative ions optimised for each platinum amphiphile. The reduction kinetics was plotted as the percentage of the area under the peak of Pt (IV)-prodrug compared to the peak before the addition of the reducing agent against the time of incubation. At each time point 10 μl of a sample withdrawn from the reaction solution was injected directly into a Phenomenex C8 150 mm×2 mm 5 μm Luna column (Phenomenex, Australia). A 100% Methanol solution was used as the mobile phase with a flow rate of 0.5 ml/min for 8 minutes. The sample after the column separation was eluted to the ESI source. […] The samples were well maintained at a temperature of 37° C. during the entire measurement by incubation in the temperature-controlled auto-sampler. Data was acquired and processed with Xcalibur Quan chromatography software.

CCCCCCCCCCCCCC(=O)[O][Pt]1([NH2])([NH2])([O]C(=O)CCCCCCCCCCCCC)[O]C(=O)C2(CCC2)C(=O)[O]1 [Carboplatin-bis (myristoyl), cis, trans [(Diamine) (1,1-cyclobutanedicarboxylato) (bis myristoyl)]]
reduction of prodrug at 5 h: up to 80%
